Data reported in article PMC4021398.
These are yes or no findings as the source states them, for the method shown. In cells and extracts the contact can be indirect. Some results given as binding are weak or reduced against the parent protein; the word gives no strength. Tags and fused reporters may be left off the sequences shown.

Chains of the proteins cited; added tags and fusions are not shown.
UniProt Q06330: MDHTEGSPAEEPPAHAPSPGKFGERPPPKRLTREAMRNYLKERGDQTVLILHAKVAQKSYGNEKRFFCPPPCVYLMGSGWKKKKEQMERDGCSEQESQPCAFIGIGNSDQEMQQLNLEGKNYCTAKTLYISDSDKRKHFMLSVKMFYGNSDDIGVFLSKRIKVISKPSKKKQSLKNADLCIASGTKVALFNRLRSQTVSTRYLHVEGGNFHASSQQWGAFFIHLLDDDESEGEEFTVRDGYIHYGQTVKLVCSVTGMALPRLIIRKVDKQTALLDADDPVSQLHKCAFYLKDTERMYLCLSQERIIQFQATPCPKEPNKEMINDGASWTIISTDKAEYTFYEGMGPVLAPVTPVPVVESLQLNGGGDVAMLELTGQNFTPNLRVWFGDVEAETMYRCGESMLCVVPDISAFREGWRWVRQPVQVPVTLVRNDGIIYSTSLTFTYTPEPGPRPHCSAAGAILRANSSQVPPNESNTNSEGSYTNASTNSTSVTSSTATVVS
UniProt O75376: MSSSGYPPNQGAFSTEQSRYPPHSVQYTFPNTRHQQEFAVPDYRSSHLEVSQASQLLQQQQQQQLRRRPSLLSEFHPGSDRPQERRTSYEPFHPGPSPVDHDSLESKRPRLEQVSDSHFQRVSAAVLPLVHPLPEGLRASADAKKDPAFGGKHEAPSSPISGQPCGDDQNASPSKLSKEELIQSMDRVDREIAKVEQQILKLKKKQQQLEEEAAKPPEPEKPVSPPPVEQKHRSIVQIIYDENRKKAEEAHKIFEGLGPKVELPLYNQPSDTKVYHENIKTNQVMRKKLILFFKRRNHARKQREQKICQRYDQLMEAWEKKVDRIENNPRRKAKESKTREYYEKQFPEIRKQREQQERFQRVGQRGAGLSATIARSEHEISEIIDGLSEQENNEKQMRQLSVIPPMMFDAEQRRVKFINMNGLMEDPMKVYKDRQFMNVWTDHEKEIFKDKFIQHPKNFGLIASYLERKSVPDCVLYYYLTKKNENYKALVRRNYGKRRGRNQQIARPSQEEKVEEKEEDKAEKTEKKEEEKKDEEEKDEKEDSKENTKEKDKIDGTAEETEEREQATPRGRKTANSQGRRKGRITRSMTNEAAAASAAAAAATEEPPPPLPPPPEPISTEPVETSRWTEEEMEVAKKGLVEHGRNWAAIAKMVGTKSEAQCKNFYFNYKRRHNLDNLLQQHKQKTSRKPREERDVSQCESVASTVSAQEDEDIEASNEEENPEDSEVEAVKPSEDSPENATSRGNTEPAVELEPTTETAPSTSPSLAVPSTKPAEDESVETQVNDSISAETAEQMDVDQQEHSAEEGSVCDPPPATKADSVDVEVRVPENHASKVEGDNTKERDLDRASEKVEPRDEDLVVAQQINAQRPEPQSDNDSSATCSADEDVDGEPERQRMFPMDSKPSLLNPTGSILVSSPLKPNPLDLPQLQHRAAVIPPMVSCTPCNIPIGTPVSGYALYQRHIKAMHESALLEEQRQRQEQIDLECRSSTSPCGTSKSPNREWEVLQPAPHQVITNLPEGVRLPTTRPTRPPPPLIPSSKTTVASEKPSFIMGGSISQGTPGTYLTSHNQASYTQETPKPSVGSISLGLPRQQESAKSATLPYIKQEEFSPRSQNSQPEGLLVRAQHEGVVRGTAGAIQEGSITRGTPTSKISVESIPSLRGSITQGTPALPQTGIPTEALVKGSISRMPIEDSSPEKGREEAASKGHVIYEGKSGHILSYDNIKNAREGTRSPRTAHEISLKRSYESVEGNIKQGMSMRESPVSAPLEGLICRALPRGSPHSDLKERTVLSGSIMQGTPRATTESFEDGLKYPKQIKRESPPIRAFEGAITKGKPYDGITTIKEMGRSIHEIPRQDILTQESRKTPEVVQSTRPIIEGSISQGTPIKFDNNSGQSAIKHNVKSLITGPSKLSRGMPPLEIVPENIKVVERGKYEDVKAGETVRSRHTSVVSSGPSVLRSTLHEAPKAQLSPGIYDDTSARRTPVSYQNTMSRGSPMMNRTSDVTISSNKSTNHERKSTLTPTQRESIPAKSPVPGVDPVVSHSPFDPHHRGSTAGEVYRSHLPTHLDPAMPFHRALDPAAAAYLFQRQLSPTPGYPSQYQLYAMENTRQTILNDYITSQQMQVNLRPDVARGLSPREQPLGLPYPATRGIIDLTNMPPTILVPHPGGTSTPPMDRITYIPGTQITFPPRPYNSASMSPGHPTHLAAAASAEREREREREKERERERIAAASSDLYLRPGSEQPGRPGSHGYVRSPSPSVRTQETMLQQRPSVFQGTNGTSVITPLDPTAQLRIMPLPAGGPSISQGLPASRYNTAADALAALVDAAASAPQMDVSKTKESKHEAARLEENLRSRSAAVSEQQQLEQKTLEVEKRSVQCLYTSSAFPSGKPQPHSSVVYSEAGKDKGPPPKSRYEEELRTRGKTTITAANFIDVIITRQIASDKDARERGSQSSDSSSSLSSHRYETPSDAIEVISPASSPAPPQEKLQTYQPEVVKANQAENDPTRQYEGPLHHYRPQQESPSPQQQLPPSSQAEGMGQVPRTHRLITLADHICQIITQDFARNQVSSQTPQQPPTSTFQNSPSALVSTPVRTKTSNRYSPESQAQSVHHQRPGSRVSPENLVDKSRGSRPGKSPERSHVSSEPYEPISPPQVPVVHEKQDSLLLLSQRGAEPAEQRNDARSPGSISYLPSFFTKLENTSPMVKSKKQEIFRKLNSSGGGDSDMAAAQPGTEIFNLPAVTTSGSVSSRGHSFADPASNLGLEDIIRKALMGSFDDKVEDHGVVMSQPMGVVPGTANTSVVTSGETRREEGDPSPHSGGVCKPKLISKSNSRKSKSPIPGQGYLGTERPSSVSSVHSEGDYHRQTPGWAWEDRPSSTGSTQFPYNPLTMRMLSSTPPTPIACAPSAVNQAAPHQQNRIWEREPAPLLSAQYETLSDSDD
UniProt Q13547: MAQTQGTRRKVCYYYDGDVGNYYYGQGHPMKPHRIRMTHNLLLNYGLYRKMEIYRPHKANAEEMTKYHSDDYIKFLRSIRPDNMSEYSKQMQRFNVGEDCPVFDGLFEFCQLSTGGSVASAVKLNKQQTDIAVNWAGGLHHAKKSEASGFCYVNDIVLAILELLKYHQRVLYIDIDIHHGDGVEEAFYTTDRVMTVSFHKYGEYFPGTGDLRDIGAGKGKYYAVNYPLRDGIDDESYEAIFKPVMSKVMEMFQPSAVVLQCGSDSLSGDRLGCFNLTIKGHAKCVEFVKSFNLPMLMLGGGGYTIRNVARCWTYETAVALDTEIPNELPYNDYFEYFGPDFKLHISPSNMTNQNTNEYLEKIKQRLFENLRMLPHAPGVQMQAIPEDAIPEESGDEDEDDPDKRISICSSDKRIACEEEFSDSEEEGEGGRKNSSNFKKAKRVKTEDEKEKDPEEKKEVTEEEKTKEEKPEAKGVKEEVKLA

Molecular target: T1, full-length GST-PTOV1 (human) (UniProt Q86YD1)
T1 sequence: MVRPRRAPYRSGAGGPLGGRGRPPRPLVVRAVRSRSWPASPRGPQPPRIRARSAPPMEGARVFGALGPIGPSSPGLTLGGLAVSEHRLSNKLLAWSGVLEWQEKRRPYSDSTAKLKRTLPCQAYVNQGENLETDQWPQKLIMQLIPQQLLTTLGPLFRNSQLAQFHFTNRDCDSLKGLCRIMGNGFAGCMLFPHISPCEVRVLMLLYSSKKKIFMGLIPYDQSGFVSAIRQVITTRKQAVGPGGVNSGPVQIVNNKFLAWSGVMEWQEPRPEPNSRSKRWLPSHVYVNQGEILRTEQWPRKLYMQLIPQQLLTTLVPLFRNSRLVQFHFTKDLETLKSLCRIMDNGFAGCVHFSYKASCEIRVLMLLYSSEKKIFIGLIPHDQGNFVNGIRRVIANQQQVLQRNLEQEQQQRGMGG
Experiment: pull-down; purified GST-fusion proteins (GST-PTOV1, GST-A domain, GST-B domain) on beads, with extracts of transfected PC-3 cells; bound proteins analysed by SDS-PAGE and Western blotting; only the target purified

binding, binds:
FLAG-RBP-Jκ (from UniProt Q06330 1-500)
FLAG-NCoR (from UniProt O75376 1-2440)
FLAG-HDAC1 (from UniProt Q13547 1-482) (enzyme)
